PubChem BioAssay AID504784 – Drosophila RNAi Screening Center | 2011

Aim: 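Genome-wide knock-down for genes giving too much or too little stored lipid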 (primary screen)
Cell system: Drosophila Kc167 embryonic cells
Knock-down reagent: long dsRNA against Drosophila genes, about 250 ng dsRNA per well
Timing: 4 days
Challenge: cells fed 400 µM oleic acid bound to BSA
Detection: 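Microscope images give a droplet-to-nucleus area ratio, taken as log and converted to a screen-wide B-score; higher values mean greater lipid storage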
Direction: droplet/nuclear area B-score: higher = more stored lipid (overstorage)
The deposit covers about 17,000 reagents; below is an unselected part of those with a known target gene and a result. 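Each column is one replicate's B-score; the combined score over replicates was not deposited, so single values may mislead.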 Not all columns of the deposit are shown.

Knock-down of asl [DRSC12319] came out at: droplet/nuclear area B-score, replicate 1 = -0.215.
Depletion of CG2321 [DRSC15439] came out at: droplet/nuclear area B-score, replicate 1 = -0.0377.
Depletion of CG4707 [DRSC04483] resulted in: droplet/nuclear area B-score, replicate 1 = -0.405.
CG9205 [DRSC08642] gave droplet/nuclear area B-score, replicate 1 = -0.316.
With knock-down of hiro [DRSC08564], the screen gave droplet/nuclear area B-score, replicate 1 = 0.182.
CG7083 [DRSC11136] gave droplet/nuclear area B-score, replicate 1 = 0.3.
Silencing of Pym [DRSC22492] gave: droplet/nuclear area B-score, replicate 1 = -0.256.
For Pym [DRSC23017], the values are droplet/nuclear area B-score, replicate 1 = 1.3.
After knock-down of Ip6k [DRSC04054], the record shows droplet/nuclear area B-score, replicate 1 = -2.71.
With knock-down of CG18789 [DRSC02696] the results were droplet/nuclear area B-score, replicate 1 = -0.349.
With knock-down of CG15699 (retired record) [DRSC06571] the results were droplet/nuclear area B-score, replicate 1 = 1.44.
Against Arl8 [DRSC16334], the entry reads droplet/nuclear area B-score, replicate 1 = 1.1.
Against CG4653 [DRSC19909], the values are droplet/nuclear area B-score, replicate 1 = -0.00988.
For CG4653 [DRSC22857] the deposit lists droplet/nuclear area B-score, replicate 1 = -0.947.
Depletion of CG4686 [DRSC15622] came out at: droplet/nuclear area B-score, replicate 1 = -0.372.
With knock-down of knrl [DRSC11892], the screen gave droplet/nuclear area B-score, replicate 1 = -0.775.
After knock-down of knrl [DRSC23245], the record shows droplet/nuclear area B-score, replicate 1 = -0.459.
CG6481 [DRSC19995] gave droplet/nuclear area B-score, replicate 1 = -0.373.
Silencing of GstZ1 [DRSC16478] resulted in: droplet/nuclear area B-score, replicate 1 = -0.58.
slpr [DRSC18225] scored droplet/nuclear area B-score, replicate 1 = 0.708.
Against slpr [DRSC23321], the values are droplet/nuclear area B-score, replicate 1 = -1.08.
CG7196 (retired record) [DRSC01000] scored droplet/nuclear area B-score, replicate 1 = -0.0745.
CG7196 (retired record) [DRSC03023] scored droplet/nuclear area B-score, replicate 1 = -0.968.
Depletion of CG3124 [DRSC04339] came out at: droplet/nuclear area B-score, replicate 1 = 0.776.
Knock-down of CG3124 [DRSC23062] gave: droplet/nuclear area B-score, replicate 1 = 0.153.
Against CG3165 [DRSC00573], the values are droplet/nuclear area B-score, replicate 1 = -0.544.
Nil [DRSC15953] showed droplet/nuclear area B-score, replicate 1 = -1.49.
With knock-down of Nil [DRSC23322], the record shows droplet/nuclear area B-score, replicate 1 = 0.0138.

Quoted from the entries so far for reference:
CG4686 [DRSC15622] | droplet/nuclear area B-score, replicate 1 = -0.372
knrl [DRSC11892] | droplet/nuclear area B-score, replicate 1 = -0.775
knrl [DRSC23245] | droplet/nuclear area B-score, replicate 1 = -0.459
CG6481 [DRSC19995] | droplet/nuclear area B-score, replicate 1 = -0.373
GstZ1 [DRSC16478] | droplet/nuclear area B-score, replicate 1 = -0.58
slpr [DRSC18225] | droplet/nuclear area B-score, replicate 1 = 0.708
slpr [DRSC23321] | droplet/nuclear area B-score, replicate 1 = -1.08

The results go on:
After knock-down of CG3955 [DRSC06859], the record shows droplet/nuclear area B-score, replicate 1 = -0.384.
Knock-down of CG12992 [DRSC19512] resulted in: droplet/nuclear area B-score, replicate 1 = -0.47.
With knock-down of CG11269 [DRSC04094], the screen gave droplet/nuclear area B-score, replicate 1 = 0.616.
Acph-1 [DRSC14103] showed droplet/nuclear area B-score, replicate 1 = 1.11.
Against Or69a [DRSC11243], the values are droplet/nuclear area B-score, replicate 1 = 0.0201.
With knock-down of xmas-1 (retired record) [DRSC20386] the results were droplet/nuclear area B-score, replicate 1 = 0.445.
Against CG7328 [DRSC10812], the values are droplet/nuclear area B-score, replicate 1 = -0.112.
With knock-down of Tssk [DRSC14784] the results were droplet/nuclear area B-score, replicate 1 = 0.85.
Appl [DRSC17728] scored droplet/nuclear area B-score, replicate 1 = -1.15.
For Mnn1 [DRSC03368], the entry reads droplet/nuclear area B-score, replicate 1 = 0.0927.
After knock-down of CG10737 [DRSC05999] the results were droplet/nuclear area B-score, replicate 1 = 0.855.
With knock-down of crn [DRSC18184], the screen gave droplet/nuclear area B-score, replicate 1 = 0.981.
crn [DRSC18185] scored droplet/nuclear area B-score, replicate 1 = -0.042.
After knock-down of crn [DRSC18755], the record shows droplet/nuclear area B-score, replicate 1 = -0.333.
